Data on one substance can be found in PMC4624954, “Delineating the Tes Interaction Site in Zyxin and Studying Cellular Effects of Its Disruption” (PLoS ONE, 2015).

Where a chain is given by its changes, count along the chain named. These are yes or no findings as the source states them, for the method shown. A result given as binding can be weak or reduced; the word gives no strength.

Experiment [1] deals with T1, Zyx FL MT-mito (human) (UniProt Q15942).
T1 sequence: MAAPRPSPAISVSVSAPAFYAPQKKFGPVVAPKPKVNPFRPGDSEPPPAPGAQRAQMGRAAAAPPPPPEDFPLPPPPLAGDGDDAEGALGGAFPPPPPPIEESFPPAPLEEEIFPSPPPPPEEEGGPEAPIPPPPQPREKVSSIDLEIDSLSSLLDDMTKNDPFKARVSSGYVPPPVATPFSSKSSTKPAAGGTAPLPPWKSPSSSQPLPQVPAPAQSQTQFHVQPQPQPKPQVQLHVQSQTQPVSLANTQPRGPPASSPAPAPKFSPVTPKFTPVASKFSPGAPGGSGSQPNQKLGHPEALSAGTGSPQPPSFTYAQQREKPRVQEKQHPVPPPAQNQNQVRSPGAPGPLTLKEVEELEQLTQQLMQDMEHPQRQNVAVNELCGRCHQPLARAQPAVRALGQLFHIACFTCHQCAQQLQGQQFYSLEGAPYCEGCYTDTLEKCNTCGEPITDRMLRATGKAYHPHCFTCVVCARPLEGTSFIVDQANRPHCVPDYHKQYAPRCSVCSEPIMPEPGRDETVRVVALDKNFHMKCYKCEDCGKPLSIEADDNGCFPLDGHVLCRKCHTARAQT
Kind of experiment: ectopic recruitment to mitochondria; zyxin-null fibroblasts transfected with Zyx FL WT-mito or Zyx FL MT-mito; endogenous VASP and α-actinin stained with antibodies.

The target in experiment [2] is T2, Zyx FL WT-mito (human) (UniProt Q15942).
T2 sequence: T1 sequence with A60V, A61G, A62E, A63I
The experiment is described as above.

On to α-actinin, for which the binding entry in experiment [1] and in experiment [2] was “binds” throughout.
